# Experimental data reported in the supplement of paper PMC4683952.
# This is one part of the list. Cut-off read from the data, not from the text of the source: active = 2 or more and inactive = the rest. Most values lie within the scatter of the assay; repeated measurements hardly agree.
# System: Lgr5 (MarsCy1-Lgr5-EGFP, U2OS)
# Assay: cell-surface Lgr5 expression (SCi1 fluorescence, background-subtracted) relative to WT DMSO (fold of DMSO control); higher = more Lgr5 at the plasma membrane
# Details: U2OS MarsCy1-Lgr5-EGFP stable; treatment time: overnight; library: ActiProbe-5K (TimTec); 25 µM
row,Structure (SMILES),cell-surface Lgr5 expression
1,Cn1c(=O)oc2ccc(S(=O)(=O)Nc3ccc4c(c3)CCN4S(C)(=O)=O)cc21,inactive: 1.02
2,C=CCn1c(N)c(C(N)=O)sc1=S,inactive: 0.939
3,CNC(=S)Nc1ccc(Br)cc1,inactive: 1.73
4,O=C1CCC(C(=O)NCC23CC4CC(CC(C4)C2)C3)N1 (stereo unspecified),inactive: 1.16
5,COc1cc(C2SCCS2)cc([N+](=O)[O-])c1O,inactive: 1.11
6,CC(C)(C)CC(=O)NC(=S)N(C1CCCCC1)C1CCCCC1,inactive: 0.968
7,C=C(C)C[C@@H]1Cc2c(Br)cccc2[C@@H](CC(=C)C)N1.Cl,inactive: 1.23
8,Nc1cc(O)cc([N+](=O)[O-])c1,inactive: 0.538
9,CC(C)C(O)(C(=O)OC[C@@H]1CCN2CCC[C@@H]12)C(C)O (stereo partly specified),inactive: 1.21
10,N#C/C(=C/Sc1ccccc1F)C(=N)N,inactive: 1.14
11,CC1(C)SCC(C(=O)O)N1C=O (stereo unspecified),inactive: 0.864
12,CN1CCc2cc(CO)sc2C1,inactive: 1.19
13,O=[N+]([O-])c1ccc2c(c1)oc1ccc(S(=O)(=O)N3CCOCC3)cc12,inactive: 0.91
14,O=C1NC(=S)S/C1=C\c1ccsc1,inactive: 1.01
15,CCOC(NC(C)=O)C(NC(C)=O)OCC (stereo unspecified),inactive: 1.39
16,CN1C(=O)C(CCCNC(=N)N)NC1=S (stereo unspecified),inactive: 0.907
17,Cn1cc([N+](=O)[O-])c(C(=O)O)n1,inactive: 1.3
18,CC(CN1CCOCC1)C(=O)NN (stereo unspecified),inactive: 1.17
19,c1n[nH]c(NCc2ccc3c(c2)OCO3)n1,inactive: 1.21
20,O=c1[nH]c2ccc(S(=O)(=O)N3CCCC3)cc2[nH]1,inactive: 1.38
21,Fc1cccc2c1N[C@@H](c1c3ccccc3cc3ccccc13)[C@H]1CC=C[C@@H]21,inactive: 1.04
22,COc1cc(S(N)(=O)=O)c(OC)cc1Cl,inactive: 1.2
23,O=C1Nc2ccccc2/C1=N/c1ccc(SC(F)F)cc1,inactive: 1.08

row,Structure (SMILES),cell-surface Lgr5 expression
1,O=c1c2c(oc3c1CCCC3)CCCC2,inactive: 0.885
2,N#Cc1sc2nc3c(cc2c1N)CCCC3,inactive: 1.45
3,N#C/N=C(\Nc1ccccc1)SCc1ccccn1,inactive: 1.13
4,CC(C)NC(=O)CSc1nc2[nH]c(=O)cc(O)c2s1,inactive: 1.05
5,NC(=O)c1c(NC(=O)C2C3C=CC(C3)C2C(=O)O)sc2c1CCCC2 (stereo unspecified),inactive: 1.35
6,CC12CCC(C(=O)N(CN3CCCCC3)C1=O)C2(C)C (stereo unspecified),inactive: 1.1
7,CC(C)Oc1ccc(Oc2nc(NC3CC3)nc(N(C)C)n2)nn1,inactive: 1.16
8,C/C(=N/NC(=O)c1cccs1)c1ccc(Br)s1,inactive: 1.16
9,COc1ccc(Cl)cc1NN,inactive: 1.2
10,CCSc1nc(C)c(Cl)c(C)c1C#N,inactive: 0.968
11,Clc1ncccc1/N=N/c1cccnc1Cl,inactive: 0.725
12,CN1C(=O)C(CO)NC1=S (stereo unspecified),inactive: 1.46
13,CC1(C)C(=O)OC(c2ccco2)C2(CCCCC2)C1=O (stereo unspecified),inactive: 1.4
14,CCC(Cn1ccnc1)[N+](=O)[O-] (stereo unspecified),inactive: 1.12
15,C=CCn1c(C)nnc1S,inactive: 1.09
16,CCOC(=O)N1CCN(C(=O)N2CCOCC2)CC1,inactive: 1.01
17,Cc1ccc2nc(=O)c3cc(F)c(F)c(F)c3n2c1,inactive: 0.54
18,O=S(=O)(NC1C2CC3CC(C2)CC1C3)c1ccccc1 (stereo unspecified),inactive: 1.27
19,CS(=O)(=O)Nc1ccc(Cl)cc1Cl,inactive: 1.02
20,COc1ccc2c(c1)sc(=N)n2CCO,inactive: 0.888
21,Oc1c(Br)cc(Br)cc1/C=N\c1cc(Cl)cc(Cl)c1,inactive: 1.05
22,Oc1ccc(Cl)cc1C1=NOC(O)(C(F)(F)F)C1 (stereo unspecified),inactive: 1.22
23,CSc1ccc(C2Nc3cccc4cccc(c34)N2)cc1,inactive: 0.905

row,Structure (SMILES),cell-surface Lgr5 expression
1,Nc1nonc1C(=O)N1CCCCC1,inactive: 1.03
2,Cc1ccsc1/C=C1\SC(=N)NC1=O,inactive: 1.04
3,c1cc2nsnc2cc1COc1ccc2c(c1)CCCC2,inactive: 1.05
4,N#CC1C2(CCCC2)C1(C#N)C(N)=O (stereo unspecified),inactive: 1.42
5,O=C(O)CCC1NC(=O)NC1=O (stereo unspecified),inactive: 1.12
6,C=CCSc1nc2[nH]c(=O)cc(O)c2s1,inactive: 1.2
7,CC(C)(C)C(=O)c1sc2nc3c(c(-c4cccs4)c2c1N)CCC3,inactive: 1.31
8,CC(/C=N\n1c(S)nnc1C1CCCCC1)=C/c1ccco1,inactive: 1.03
9,O=S(=O)(c1ccsc1)c1ccsc1,inactive: 1.17
10,C=C1CN=C(N(C(=O)Nc2ccccc2)c2ccc(F)cc2F)S1,inactive: 1.84
11,O=C1NC(=S)N/C1=C/c1ccc(-c2ccc3c(c2)COC3=O)o1,inactive: 1.17
12,Cc1n[nH]c(=O)nc1NC1CCCCC1,inactive: 1.18
13,COC(=O)N[C@@H]1CSC[C@@H]1O,inactive: 1.33
14,CC12C=CC(=O)C=C1CCC1C3CC(O)C(O)(C(=O)CO)C3(C)CC(O)C12F (stereo unspecified),inactive: 1.48
15,O=C(O)C1C2C=CC(C2)C1C(=O)NCCN1CCOCC1 (stereo unspecified),inactive: 1.26
16,CO/N=C(\C(=O)NC1C(=O)N2C(C(=O)[O-])=C(COC(C)=O)CSC12)c1csc(N)n1.[Na+] (stereo unspecified),inactive: 1.01
17,CC(C)(C)Sc1cccc2ccccc12,inactive: 1.24
18,O=C(NC1CCCCC1)c1occ2c1OCCO2,inactive: 1.02
19,CC(C)(C)S(=O)(=O)c1ccsc1S(C)(=O)=O,inactive: 1.37
20,CC1(C)C2CCC1(C)C(NC(=O)CSc1nnc(N)s1)C2 (stereo unspecified),inactive: 1.3
21,NS(=O)(=O)c1ccc(-n2cccc2/C=N\n2cnnc2)cc1,inactive: 1.11
22,CC(C)(C)c1ccc2c(c1)OCCOCCOCCO2,inactive: 1
23,Cn1c(=O)c2c(nc(-n3ccnc3)n2C)n(C)c1=O,inactive: 1.22

row,Structure (SMILES),cell-surface Lgr5 expression
1,NC(=O)CNc1n[nH]c(=O)[nH]c1=O,inactive: 0.829
2,CC(=O)NC1(C)CCCCC1,inactive: 0.979
3,COc1ccc2c(c1)C(C)=CC(C)(C)N2,inactive: 1.19
4,N#Cc1ccc(-c2cccs2)[nH]c1=S,inactive: 1.19
5,C(=N/N1CCN(C2c3ccccc3-c3ccccc32)CC1)/c1ccccn1,inactive: 0.806
6,Cn1cnc2[nH]c(=O)[nH]c(=O)c21,inactive: 1.05
7,OC1CCCc2c1[nH]c1ccc(C(F)(F)F)cc21 (stereo unspecified),inactive: 1.09
8,Cc1oc2c(Cl)c(Cl)c(O)cc2c1[N+](=O)[O-],inactive: 1.3
9,Clc1ccc2c(c1)C1C=CCC1C(c1cccc3ccccc13)N2 (stereo unspecified),inactive: 1.02
10,CCc1nc2[nH]nc(N)c2c2c1COC(C)(C)C2,inactive: 1.32
11,Cc1c(-c2n[nH]cc2Br)cnn1C,inactive: 1.11
12,FC(F)(F)c1ccc(/C=N\n2c(S)nnc2C2CCCCC2)cc1,inactive: 0.958
13,O=C(Oc1nsnc1N1CCOCC1)N1CCOCC1,inactive: 1.13
14,O=C1NCCN1C(=O)Nc1ccc(Cl)c(Cl)c1,inactive: 1.2
15,NCCCN1CCc2ccccc21,inactive: 0.928
16,C[n+]1c(/C=C\Nc2ccccc2)sc2ccccc21.[Cl-],inactive: 1.97
17,C=CCNC(=S)NNC(=O)C(CCC(C)C)CC(C)(C)O (stereo unspecified),inactive: 0.952
18,CN(C)c1ccc2nc3c(C(=O)O)cc(=O)c(O)c-3oc2c1,active: 2.23
19,CC1CN(S(C)(=O)=O)CC(C)O1 (stereo unspecified),inactive: 1.1
20,C=CCNC(=O)c1scc2c1CCCC2,inactive: 0.921
21,CS(=O)(=O)Nc1ccc(S(=O)(=O)N2CCOCC2)cc1,inactive: 1.05
22,O=C1NCCN1C(=O)Nc1nc(=S)ss1,inactive: 0.97
23,Cc1cc(-c2[nH]c(=O)[nH]c2-c2cc(C)sc2C)c(C)s1,inactive: 1.24

# Copied from the entries so far (7 entries):
row,Structure (SMILES),cell-surface Lgr5 expression
13,O=C(Oc1nsnc1N1CCOCC1)N1CCOCC1,inactive: 1.13
14,O=C1NCCN1C(=O)Nc1ccc(Cl)c(Cl)c1,inactive: 1.2
15,NCCCN1CCc2ccccc21,inactive: 0.928
16,C[n+]1c(/C=C\Nc2ccccc2)sc2ccccc21.[Cl-],inactive: 1.97
17,C=CCNC(=S)NNC(=O)C(CCC(C)C)CC(C)(C)O (stereo unspecified),inactive: 0.952
18,CN(C)c1ccc2nc3c(C(=O)O)cc(=O)c(O)c-3oc2c1,active: 2.23
19,CC1CN(S(C)(=O)=O)CC(C)O1 (stereo unspecified),inactive: 1.1

# The listing continues.

row,Structure (SMILES),cell-surface Lgr5 expression
1,CC(C)(C)c1cc(Cc2cc(C(C)(C)C)c(O)c(C(C)(C)C)c2)c(O)c(C(C)(C)C)c1,inactive: 1.29
2,CCCCCCCn1c(SCC(C)C)nc2c1c(=O)[nH]c(=O)n2C,inactive: 1.6
3,COC(=O)NNC(=O)C1CCCCC1,inactive: 0.882
4,CC(C)(O)/C(=C/C#N)n1cccn1,inactive: 0.979
5,COC(=O)C1=C(C(=O)OC)SC2(S1)C(C(=O)OC)=C(C(=O)OC)SC1=C2c2cc(OC)ccc2NC1(C)C,inactive: 1.37
6,CC1=NN(C(C#N)c2ccc(Cl)c(Cl)c2)C(C)(C)C1 (stereo unspecified),inactive: 1.21
7,O=C(CCCC(=O)OCC(F)(F)C(F)F)NC1CCCCC1,inactive: 1.13
8,COC(=O)c1ccc(=O)oc1,inactive: 1.52
9,Cc1cc(C)nc(SC/C(N)=N/O)n1,inactive: 1.02
10,CC1CC(O)(/C=C/C2(O)CCCCC2)C(C)CN1C (stereo unspecified),inactive: 1.01
11,C(/C#N)(C#N)=C/Nc1cc(Cl)ccc1Cl,inactive: 1
12,NC(=O)c1cc(C2(O)CCCCC2)on1,inactive: 0.947
13,CCOCC(O)CSc1nc(C)cc(C)n1 (stereo unspecified),inactive: 1.04
14,COc1cc(-c2oc3cc(O)cc(O)c3c(=O)c2O)cc(OC)c1OC,inactive: 0.708
15,O=C1CSc2nc3ccccc3n21,inactive: 1.16
16,CSc1sc(C)cc1/C=N\O,inactive: 1.16
17,C=COCC[NH2+]Cc1ccc(Cl)s1.[Cl-],inactive: 1.1
18,C=CCn1c(S)nnc1C12CC3CC(CC(C3)C1)C2,inactive: 0.955
19,Clc1cccc2nnc(-c3ccc(Br)cc3)n12,inactive: 1.02
